T1: HaHSFA4 prey (plasmid pGAD424-HaHSFA4) (sunflower (Helianthus annuus))
T1 construct: also called Prey, HSFA4; not shown: fusion partner encoded by the prey vector pGAD424
T1 chain: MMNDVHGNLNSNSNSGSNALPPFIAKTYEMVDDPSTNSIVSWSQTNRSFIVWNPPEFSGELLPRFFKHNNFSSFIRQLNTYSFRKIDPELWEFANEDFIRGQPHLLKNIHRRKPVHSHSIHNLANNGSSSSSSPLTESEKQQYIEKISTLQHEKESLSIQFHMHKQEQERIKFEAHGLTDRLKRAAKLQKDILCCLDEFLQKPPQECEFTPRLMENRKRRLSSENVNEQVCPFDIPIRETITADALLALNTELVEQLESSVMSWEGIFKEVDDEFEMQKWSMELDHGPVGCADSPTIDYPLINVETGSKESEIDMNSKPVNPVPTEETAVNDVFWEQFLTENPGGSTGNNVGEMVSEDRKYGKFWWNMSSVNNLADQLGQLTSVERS

T2: HaHSFA9:YFP^C (sunflower (Helianthus annuus))
T2 construct: also called HaHSFA9 (non-fluorescent)
T2 chain: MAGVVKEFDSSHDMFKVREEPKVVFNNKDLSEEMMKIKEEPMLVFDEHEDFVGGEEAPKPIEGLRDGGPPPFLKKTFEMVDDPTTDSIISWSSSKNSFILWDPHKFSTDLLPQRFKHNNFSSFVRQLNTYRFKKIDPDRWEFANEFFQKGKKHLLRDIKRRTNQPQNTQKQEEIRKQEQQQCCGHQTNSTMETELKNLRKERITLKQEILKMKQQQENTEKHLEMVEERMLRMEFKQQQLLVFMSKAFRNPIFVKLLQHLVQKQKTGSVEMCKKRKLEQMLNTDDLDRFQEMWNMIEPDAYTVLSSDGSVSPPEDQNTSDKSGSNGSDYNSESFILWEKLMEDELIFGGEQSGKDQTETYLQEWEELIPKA


How the values were obtained:
[1] = target: T1, HaHSFA4 prey (plasmid pGAD424-HaHSFA4); assay: yeast two-hybrid, growth on selective medium (-His)
HaHSFA9:YFP^C = target: T2, HaHSFA9:YFP^C; assay: BiFC in N. benthamiana leaves, confocal microscopy
Method: 48 h after infiltration, disc sections from the infiltrated leaves were analyzed.
For the experiments in FIG. 16, BiFC was studied under a Leica TCS-SP2 confocal laser-scanning microscope with a HC PL FLUOTAR 20×/0.50 objective. Applicants used standard YFP excitation and detection settings. Image analysis was carried out with Leica LCS software and Adobe Photoshop 7.0. […] The HaHSFA9, HaHSFA4, and hybrid-HSF sequences fused to the non-fluorescent YFP-halves in these constructs were PCR-amplified from the respective effector plasmids used for the transient activation assays (see below). […] The same amount of pBI221 plasmid was used as a negative control.

binding result [1]	binding result (HaHSFA9:YFP^C)	Binder
no binding	–	HaHSFA9Δ166 (bait plasmid pGBT9-HaHSFA9Δ166) (other, N-terminal extension and DBD of HaHSFA9 without the OD; also called HaHSFA9Δ165; bait construct 3; not shown: fusion partner encoded by the bait vector pGBT9) MAGVVKEFDSSHDMFKVREEPKVVFNNKDLSEEMMKIKEEPMLVFDEHEDFVGGEEAPKPIEGLRDGGPPPFLKKTFEMVDDPTTDSIISWSSSKNSFILWDPHKFSTDLLPQRFKHNNFSSFVRQLNTYRFKKIDPDRWEFANEFFQKGKKHLLRDIKRRTNQPQ
–	binds	HaHSFA9:YFP^N (other, not shown: large carriers, also called HaHSFA9 SPYNE fusion) MAGVVKEFDSSHDMFKVREEPKVVFNNKDLSEEMMKIKEEPMLVFDEHEDFVGGEEAPKPIEGLRDGGPPPFLKKTFEMVDDPTTDSIISWSSSKNSFILWDPHKFSTDLLPQRFKHNNFSSFVRQLNTYRFKKIDPDRWEFANEFFQKGKKHLLRDIKRRTNQPQNTQKQEEIRKQEQQQCCGHQTNSTMETELKNLRKERITLKQEILKMKQQQENTEKHLEMVEERMLRMEFKQQQLLVFMSKAFRNPIFVKLLQHLVQKQKTGSVEMCKKRKLEQMLNTDDLDRFQEMWNMIEPDAYTVLSSDGSVSPPEDQNTSDKSGSNGSDYNSESFILWEKLMEDELIFGGEQSGKDQTETYLQEWEELIPKA

Source: patent publication US20160010105A1 (CONSEJO SUPERIOR DE INVESTIGACIONES CIENTIFICAS CSIC, published 2016)
